The record followed here is US20130217685, “COMPOUNDS FOR MODULATING RNA BINDING PROTEINS AND USES THEREFOR” (UNIVERSITY OF MASSACHUSETTS, published 2013).

The exact form of at least one protein or probe is not confirmed.

The test system of data set [1] is POS-1 (80-180) (Caenorhabditis elegans). Briefly: FP. To be noted: same conditions as MEX-5 screen, Zn(OAc)2; compound inhibition screen; purified recombinant protein; label: 3'-fluorescein.
Data set [2] concerns MEX-3 (45-205) (Caenorhabditis elegans). The data set is described as follows: FP. Conditions: 80 nM protein, 2 nM RNA, no zinc; compound inhibition screen; purified recombinant protein; label: 3'-fluorescein.

Consider AACUAUUAUUAUUUGUUAUUCAUAUUUU [BMF018], for which, in data set [1], the binding result is “binds”.
As for CGAGCAGGAAGUGUGCAGAGUUUAGGACGU [SEQ 14], the binding result in data set [2] is recorded as “binds”.
